This passage reports binding results from publication PMC12181674.

No constants are given. Whether binding was seen depends on the method and setting. Binding seen in cells or lysates may run through a third protein. Some results given as binding are weak or reduced against the parent protein; the word gives no strength. Tags and fused reporters may be left off the sequences shown.

This experiment addresses T1, Hrd1-3FLAG (S. cerevisiae) (UniProt Q08109).
T1 sequence: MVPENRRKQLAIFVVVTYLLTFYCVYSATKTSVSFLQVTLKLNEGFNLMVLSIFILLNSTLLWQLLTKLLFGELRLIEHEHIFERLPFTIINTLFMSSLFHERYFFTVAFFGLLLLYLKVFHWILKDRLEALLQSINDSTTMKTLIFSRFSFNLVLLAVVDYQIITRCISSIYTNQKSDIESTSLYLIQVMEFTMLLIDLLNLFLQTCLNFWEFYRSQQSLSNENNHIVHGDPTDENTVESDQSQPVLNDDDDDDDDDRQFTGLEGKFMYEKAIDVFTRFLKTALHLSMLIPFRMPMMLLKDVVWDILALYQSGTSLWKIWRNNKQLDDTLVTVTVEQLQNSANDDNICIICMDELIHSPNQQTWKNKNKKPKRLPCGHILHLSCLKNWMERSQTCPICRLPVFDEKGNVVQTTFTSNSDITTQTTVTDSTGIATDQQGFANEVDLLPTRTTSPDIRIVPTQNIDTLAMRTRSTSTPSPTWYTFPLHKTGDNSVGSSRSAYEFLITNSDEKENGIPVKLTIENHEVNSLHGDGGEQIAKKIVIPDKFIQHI
Nature of the experiment: co-IP; Hrd1-3FLAG immunoprecipitated with anti-FLAG M2 affinity gel from 1% digitonin-solubilized membrane fractions (20 mM Tris-HCl pH 7.5, 100 mM NaCl, 10% glycerol), 4°C; cells treated with or without 10 mg/ml HU for 1 h at 30°C; Western blotting. For orientation: A western blot detects proteins with antibodies after separation by electrophoresis.

B1: Yos9 (protein, UniProt Q99220 22-542)
chain: LLAPIEDPIVSNKYLISYIDEDDWSDRILQNQSVMNSGYIVNMGDDLECFIQNASTQLNDVLEDSNEHSNSEKTALLTKTLNQGVKTIFDKLNERCIFYQAGFWIYEYCPGIEFVQFHGRVNTKTGEIVNRDESLVYRLGKPKANVEEREFELLYDDVGYYISEIIGSGDICDVTGAERMVEIQYVCGGSNSGPSTIQWVRETKICVYEAQVTIPELCNLELLAKNEDQKNASPILCRMPAKSKIGSNSIDLITKYEPIFLGSGIYFLRPFNTDERDKLMVTDNAMSNWDEITETYYQKFGNAINKMLSLRLVSLPNGHILQPGDSCVWLAEVVDMKDRFQTTLSLNILNSQRAEIFFNKTFTFNEDNGNFLSYKIGDHGESTELGQITHSNKADINTAEIRSDEYLINTDNELFLRISKEIAEVKELLNEIVSPHEMEVIFENMRNQPNNDFELALMNKLKSSLNDDNKVEQINNARMDDDESTSHTTRDIGEAGSQTTGNTESEVTNVAAGVFIEHDEL
For B1, the binding entry was “binds”.

B2: Usa1 (protein, UniProt Q03714 1-838)
chain: MSEYLAQTPCKFTIWSSEIDLIRTNLLVNAHPLSTVGRLLQYIHYQIYKQLRAIYQPEEQCTNSEIPHTPLNSINTYFLSYEGRELSATCLLKDITSSSHPDSNHFIRLQLEKRTSPSGSAFDLEYDMEGEFNSMNIQFEINTLSSQRIFNSMEPNLPIGTTLARLEKLALERIKDFEKSAGNLCGIKEDHSVSDLQGFIIKGKQTPMFLNYGSDSDYYKDLNLVDLIGIDFAPAHNSFFTFLFKMNHEQNSHIANDEERFVLEFISDATLSITQMNVKPDTTVKQVKDFICSVYTHSLNLRRNDIKLIYKGQLLHENNFAGNSSKISEYIKEPHEVKVHVQINQEYTESGPGFWNEVFNNPNIFQFMPPDTRSQSPVSFAPTQGRSPAAIRGEERGIPYVTESGNDIVPTDELYRKCIINGDEVVFIPVSELNPQSSYLSVIKGDYGEIKIPISSNDYRINGDNILLSPSAIEQLESALNFKIERPRDSTLLHPSGEHVRAADNTSSANDNNTVENDESAWNRRVVRPLRNSFPLLLVLIRTFYLIGYNSLVPFFIILEFGSFLPWKYIILLSLLFIFRTVWNTQEVWNLWRDYLHLNEIDEVKFSQIKEFINSNSLTLNFYKKCKDTQSAIDLLMIPNLHEQRLSVYSKYDIEYDTNTPDVGQLNLLFIKVLSGEIPKDALDELFKEFFELYETTRNMNTLYPQDSLNELLLMIWKESQKKDINTLPKYRRWFQTLCSQIAEHNVLDVVLRYIIPDPVNDRVITAVIKNFVLFWVTLLPYVKEKLDDIVAQRARDREQPAPSAQQQENEDEALIIPDEEEPTATGAQPHLYIPDED
In the case of B2, the binding result is listed as “binds”.
